Record: PubChem BioAssay AID504784 (Drosophila RNAi Screening Center, 2011)

Screen: 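Genome-wide knock-down for genes giving too much or too little stored lipid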 (primary screen)
Cells: Drosophila Kc167 embryonic cells
Knock-down reagent: long dsRNA against Drosophila genes, about 250 ng dsRNA per well
Time to read-out: 4 days
Conditions: cells fed 400 µM oleic acid bound to BSA
Read-out: 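Microscope images give a droplet-to-nucleus area ratio, taken as log and converted to a screen-wide B-score; higher values mean greater lipid storage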
Direction: droplet/nuclear area B-score: higher = more stored lipid (overstorage)
The deposit covers about 17,000 reagents; shown is a random part of those that have a named target and a result. 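Each column is one replicate's B-score; the combined score over replicates was not deposited, so single values may mislead.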 Not all columns of the deposit are shown. No sequences are given here.

gene knocked down	DRSC id	droplet/nuclear area B-score, replicate 1	droplet/nuclear area B-score, replicate 2
Slh	DRSC00789	2.54	0.417
CG15739	DRSC19705	1.2	-0.0696
Jhbp14	DRSC01988	0.244	-0.874
Arc1	DRSC06159	-1.03	-0.0748
CG30001	DRSC05191	0.623	1.08
Sec63	DRSC11002	0.537	1.37
Cyp4g1	DRSC18459	0.177	
Veneno	DRSC16537	0.0713	0.949
elg1	DRSC10229	1.85	-0.0513
CG1236	DRSC12203	0.78	0.103
CG12460 (retired record)	DRSC20970	1.02	1.37
Gr93a	DRSC14593	0.106	-0.755
dally	DRSC08954	1.03	-0.54
dally	DRSC11338	0.543	-0.479
CG32160 (retired record)	DRSC22904	0.0543	-2.58
ATPsynG	DRSC02928	2.46	2.52
CG7785	DRSC16311	-1.21	-0.161
Atg18b	DRSC03108	-1.51	1.1
twy	DRSC10562	-0.0217	-1.43
CG32511 (retired record)	DRSC20697	0.819	-0.000428
Fs(2)Ket	DRSC03328	7.32	11.4
CG14194	DRSC19549	1.08	0.731
CG13793	DRSC02297	-1.65	0.954
CG4950	DRSC10463	-3.03	1.72
ari-2	DRSC04672	0.212	-1.43
CG31627	DRSC22143	5.11	-0.558
TfIIEbeta	DRSC08701	-2.3	-0.424
Vha100-1	DRSC14148	0.165	2.02
Sec24CD	DRSC00300	1.22	-0.0263
l(2)k10201	DRSC06439	0.83	0.0546
l(2)k10201	DRSC07640	-0.243	0.0168
CG12520	DRSC09892	-1.3	-0.439
cyst	DRSC02023	-3.44	-0.678
NT5E-2	DRSC06893	-0.134	-0.858
